Measurements taken from PMC5891424.
These are yes or no findings as the source states them, for the method shown. In cells and extracts the contact can be indirect. Some binding calls cover weakened binding; strength is not graded here. Tags and fused reporters may be left off the sequences shown.

Chains of the proteins cited; added tags and fusions are not shown.
UniProt Q676U5: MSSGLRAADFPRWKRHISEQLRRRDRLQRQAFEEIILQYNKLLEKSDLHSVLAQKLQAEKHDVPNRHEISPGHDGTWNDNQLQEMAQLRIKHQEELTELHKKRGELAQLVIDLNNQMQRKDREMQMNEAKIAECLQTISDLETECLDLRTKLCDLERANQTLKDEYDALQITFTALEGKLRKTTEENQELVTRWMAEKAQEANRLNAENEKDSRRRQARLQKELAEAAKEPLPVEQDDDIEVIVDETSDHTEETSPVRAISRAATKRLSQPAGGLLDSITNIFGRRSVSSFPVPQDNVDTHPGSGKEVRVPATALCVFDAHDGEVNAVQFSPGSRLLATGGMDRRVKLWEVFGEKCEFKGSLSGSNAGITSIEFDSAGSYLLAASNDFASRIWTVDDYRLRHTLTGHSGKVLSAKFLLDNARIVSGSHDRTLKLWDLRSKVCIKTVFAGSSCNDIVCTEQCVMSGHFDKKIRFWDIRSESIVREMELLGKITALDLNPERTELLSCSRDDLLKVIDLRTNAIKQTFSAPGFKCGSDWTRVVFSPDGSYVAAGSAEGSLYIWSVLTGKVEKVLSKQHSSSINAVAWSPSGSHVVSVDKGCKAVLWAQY

T1: myc-tagged SNX18 W38K (Dynamin-2 binding-deficient mutant) (human) (UniProt Q96RF0)
T1 sequence: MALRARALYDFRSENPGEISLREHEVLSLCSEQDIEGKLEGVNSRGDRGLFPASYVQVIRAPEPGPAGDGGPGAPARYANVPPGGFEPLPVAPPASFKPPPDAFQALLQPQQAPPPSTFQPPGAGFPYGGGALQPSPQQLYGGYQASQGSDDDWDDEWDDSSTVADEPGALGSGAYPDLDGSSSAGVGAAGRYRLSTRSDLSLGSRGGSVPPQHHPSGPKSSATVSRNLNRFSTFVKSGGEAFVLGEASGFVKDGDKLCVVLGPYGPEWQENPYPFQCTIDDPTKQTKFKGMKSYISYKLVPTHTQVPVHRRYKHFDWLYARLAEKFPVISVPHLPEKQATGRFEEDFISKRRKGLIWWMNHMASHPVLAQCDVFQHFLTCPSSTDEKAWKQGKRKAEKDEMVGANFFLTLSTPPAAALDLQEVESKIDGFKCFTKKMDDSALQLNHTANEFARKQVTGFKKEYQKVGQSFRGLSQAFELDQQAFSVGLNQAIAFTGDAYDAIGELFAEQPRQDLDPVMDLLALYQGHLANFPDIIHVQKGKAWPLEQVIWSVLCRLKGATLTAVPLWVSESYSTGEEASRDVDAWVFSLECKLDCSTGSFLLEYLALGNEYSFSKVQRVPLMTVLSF

T2: myc-tagged SNX18 WT (sorting nexin 18) (human) (UniProt Q96RF0)
T2 sequence: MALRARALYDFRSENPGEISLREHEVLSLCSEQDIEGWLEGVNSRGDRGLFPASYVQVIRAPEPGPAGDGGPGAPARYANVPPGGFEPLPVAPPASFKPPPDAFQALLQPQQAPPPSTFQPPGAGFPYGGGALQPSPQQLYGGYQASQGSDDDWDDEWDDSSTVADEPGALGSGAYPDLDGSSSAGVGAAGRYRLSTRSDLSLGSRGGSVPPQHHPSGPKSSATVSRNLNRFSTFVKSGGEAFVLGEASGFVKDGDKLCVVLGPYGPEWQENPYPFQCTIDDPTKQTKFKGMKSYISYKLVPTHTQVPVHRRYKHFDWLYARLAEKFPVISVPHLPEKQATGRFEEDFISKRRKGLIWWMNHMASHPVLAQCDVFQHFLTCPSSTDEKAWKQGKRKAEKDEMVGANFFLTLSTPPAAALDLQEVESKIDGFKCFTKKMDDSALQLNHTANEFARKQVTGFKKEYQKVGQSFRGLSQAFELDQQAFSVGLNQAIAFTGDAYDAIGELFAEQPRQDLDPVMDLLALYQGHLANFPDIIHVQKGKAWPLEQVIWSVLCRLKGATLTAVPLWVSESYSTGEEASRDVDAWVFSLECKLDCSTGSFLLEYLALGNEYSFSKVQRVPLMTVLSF


How the values were obtained:
[1] = biological target: T1, myc-tagged SNX18 W38K (Dynamin-2 binding-deficient mutant) (human); assay: co-IP; HEK293A cells transfected with myc control, myc-SNX18 WT or W38K; lysates incubated with magnetic anti-myc microbeads (μMACS myc-isolation kit); myc-IP blotted for Dynamin-2, ATG16L1 and myc
[2] = biological target: T2, myc-tagged SNX18 WT (sorting nexin 18) (human); assay: as above
flag-ATG16L1 = flag-ATG16L1 (UniProt Q676U5); assay: co-IP; HEK293A cells cotransfected with myc control, myc-SNX18 WT or W38K together with flag-ATG16L1; lysates incubated with magnetic anti-flag microbeads; flag-IP blotted for flag and myc

Row | binding [1] | binding [2] | binding (flag-ATG16L1) | Molecule
1 | binds | binds | – | ATG16L1 (endogenous) (from UniProt Q676U5 1-607)
2 | – | – | binds | myc-tagged SNX18 WT (sorting nexin 18) (protein, UniProt Q96RF0 1-628) MALRARALYDFRSENPGEISLREHEVLSLCSEQDIEGWLEGVNSRGDRGLFPASYVQVIRAPEPGPAGDGGPGAPARYANVPPGGFEPLPVAPPASFKPPPDAFQALLQPQQAPPPSTFQPPGAGFPYGGGALQPSPQQLYGGYQASQGSDDDWDDEWDDSSTVADEPGALGSGAYPDLDGSSSAGVGAAGRYRLSTRSDLSLGSRGGSVPPQHHPSGPKSSATVSRNLNRFSTFVKSGGEAFVLGEASGFVKDGDKLCVVLGPYGPEWQENPYPFQCTIDDPTKQTKFKGMKSYISYKLVPTHTQVPVHRRYKHFDWLYARLAEKFPVISVPHLPEKQATGRFEEDFISKRRKGLIWWMNHMASHPVLAQCDVFQHFLTCPSSTDEKAWKQGKRKAEKDEMVGANFFLTLSTPPAAALDLQEVESKIDGFKCFTKKMDDSALQLNHTANEFARKQVTGFKKEYQKVGQSFRGLSQAFELDQQAFSVGLNQAIAFTGDAYDAIGELFAEQPRQDLDPVMDLLALYQGHLANFPDIIHVQKGKAWPLEQVIWSVLCRLKGATLTAVPLWVSESYSTGEEASRDVDAWVFSLECKLDCSTGSFLLEYLALGNEYSFSKVQRVPLMTVLSF
3 | – | – | binds | myc-tagged SNX18 W38K (Dynamin-2 binding-deficient mutant) (protein, UniProt Q96RF0 1-628) MALRARALYDFRSENPGEISLREHEVLSLCSEQDIEGKLEGVNSRGDRGLFPASYVQVIRAPEPGPAGDGGPGAPARYANVPPGGFEPLPVAPPASFKPPPDAFQALLQPQQAPPPSTFQPPGAGFPYGGGALQPSPQQLYGGYQASQGSDDDWDDEWDDSSTVADEPGALGSGAYPDLDGSSSAGVGAAGRYRLSTRSDLSLGSRGGSVPPQHHPSGPKSSATVSRNLNRFSTFVKSGGEAFVLGEASGFVKDGDKLCVVLGPYGPEWQENPYPFQCTIDDPTKQTKFKGMKSYISYKLVPTHTQVPVHRRYKHFDWLYARLAEKFPVISVPHLPEKQATGRFEEDFISKRRKGLIWWMNHMASHPVLAQCDVFQHFLTCPSSTDEKAWKQGKRKAEKDEMVGANFFLTLSTPPAAALDLQEVESKIDGFKCFTKKMDDSALQLNHTANEFARKQVTGFKKEYQKVGQSFRGLSQAFELDQQAFSVGLNQAIAFTGDAYDAIGELFAEQPRQDLDPVMDLLALYQGHLANFPDIIHVQKGKAWPLEQVIWSVLCRLKGATLTAVPLWVSESYSTGEEASRDVDAWVFSLECKLDCSTGSFLLEYLALGNEYSFSKVQRVPLMTVLSF
